Assay results: US20180094045A1 (ASCLEPIUS SUZHOU TECHNOLOGY COMPANY GROUP, published 2018)
No constants are given. Whether binding was seen depends on the method and setting. Some binding calls cover weakened binding; strength is not graded here.

Amino acid sequences for entries named in this document (tags omitted). Residues count along the entry.
UniProt Q9Y6N7, residues 26-1651: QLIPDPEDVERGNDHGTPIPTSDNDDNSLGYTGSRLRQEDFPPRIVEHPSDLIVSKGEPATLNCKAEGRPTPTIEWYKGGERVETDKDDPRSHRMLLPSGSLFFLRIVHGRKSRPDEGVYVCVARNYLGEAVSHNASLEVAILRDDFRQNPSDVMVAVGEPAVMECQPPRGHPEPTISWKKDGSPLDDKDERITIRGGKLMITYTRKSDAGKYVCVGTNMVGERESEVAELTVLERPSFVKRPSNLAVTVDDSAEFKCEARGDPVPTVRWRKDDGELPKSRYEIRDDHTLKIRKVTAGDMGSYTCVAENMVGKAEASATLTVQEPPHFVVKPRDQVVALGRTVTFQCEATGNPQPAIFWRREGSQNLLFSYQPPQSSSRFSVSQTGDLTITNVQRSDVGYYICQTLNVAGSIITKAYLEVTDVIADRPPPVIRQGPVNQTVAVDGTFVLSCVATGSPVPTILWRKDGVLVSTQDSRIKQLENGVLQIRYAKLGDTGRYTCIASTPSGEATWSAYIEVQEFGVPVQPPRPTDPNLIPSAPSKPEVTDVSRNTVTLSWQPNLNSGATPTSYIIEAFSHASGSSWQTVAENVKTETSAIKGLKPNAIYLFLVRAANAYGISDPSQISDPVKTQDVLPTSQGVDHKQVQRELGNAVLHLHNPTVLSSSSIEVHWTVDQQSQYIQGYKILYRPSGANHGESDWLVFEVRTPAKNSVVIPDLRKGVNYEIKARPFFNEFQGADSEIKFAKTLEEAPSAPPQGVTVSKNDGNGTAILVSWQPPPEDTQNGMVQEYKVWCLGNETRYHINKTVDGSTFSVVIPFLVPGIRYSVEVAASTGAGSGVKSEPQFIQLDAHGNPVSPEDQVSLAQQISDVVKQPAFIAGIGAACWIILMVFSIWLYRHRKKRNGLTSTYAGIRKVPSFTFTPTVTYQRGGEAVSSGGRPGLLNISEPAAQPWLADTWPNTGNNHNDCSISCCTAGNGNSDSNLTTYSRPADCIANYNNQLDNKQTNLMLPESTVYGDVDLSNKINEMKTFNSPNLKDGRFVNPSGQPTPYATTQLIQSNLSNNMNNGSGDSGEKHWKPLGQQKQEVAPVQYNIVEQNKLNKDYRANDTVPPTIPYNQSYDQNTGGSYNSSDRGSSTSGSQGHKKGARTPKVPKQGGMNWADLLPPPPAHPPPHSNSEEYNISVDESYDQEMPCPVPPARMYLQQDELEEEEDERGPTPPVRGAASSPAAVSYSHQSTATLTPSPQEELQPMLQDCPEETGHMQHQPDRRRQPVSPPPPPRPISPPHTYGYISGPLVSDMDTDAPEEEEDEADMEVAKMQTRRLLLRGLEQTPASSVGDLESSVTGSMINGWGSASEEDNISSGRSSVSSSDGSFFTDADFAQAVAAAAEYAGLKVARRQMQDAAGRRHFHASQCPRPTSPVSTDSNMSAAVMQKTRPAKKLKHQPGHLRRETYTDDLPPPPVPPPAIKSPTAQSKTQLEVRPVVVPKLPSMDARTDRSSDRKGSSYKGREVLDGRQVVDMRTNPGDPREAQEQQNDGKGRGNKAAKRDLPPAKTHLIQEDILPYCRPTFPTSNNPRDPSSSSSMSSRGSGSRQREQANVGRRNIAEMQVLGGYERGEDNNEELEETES

Biological target: Robo1 (ORIGEN Company, number: TP327713) (UniProt Q9Y6N7)
Experiment: SPR (BIAcore), Robo1 bound on CM5 chip

binding: binds
B1: Slit2N protein (ligand, UniProt O94813 31-1121, looked up)
chain: QCSCSGSTVDCHGLALRSVPRNIPRNTERLDLNGNNITRITKTDFAGLRHLRVLQLMENKISTIERGAFQDLKELERLRLNRNHLQLFPELLFLGTAKLYRLDLSENQIQAIPRKAFRGAVDIKNLQLDYNQISCIEDGAFRALRDLEVLTLNNNNITRLSVASFNHMPKLRTFRLHSNNLYCDCHLAWLSDWLRQRPRVGLYTQCMGPSHLRGHNVAEVQKREFVCSGHQSFMAPSCSVLHCPAACTCSNNIVDCRGKGLTEIPTNLPETITEIRLEQNTIKVIPPGAFSPYKKLRRIDLSNNQISELAPDAFQGLRSLNSLVLYGNKITELPKSLFEGLFSLQLLLLNANKINCLRVDAFQDLHNLNLLSLYDNKLQTIAKGTFSPLRAIQTMHLAQNPFICDCHLKWLADYLHTNPIETSGARCTSPRRLANKRIGQIKSKKFRCSAKEQYFIPGTEDYRSKLSGDCFADLACPEKCRCEGTTVDCSNQKLNKIPEHIPQYTAELRLNNNEFTVLEATGIFKKLPQLRKINFSNNKITDIEEGAFEGASGVNEILLTSNRLENVQHKMFKGLESLKTLMLRSNRITCVGNDSFIGLSSVRLLSLYDNQITTVAPGAFDTLHSLSTLNLLANPFNCNCYLAWLGEWLRKKRIVTGNPRCQKPYFLKEIPIQDVAIQDFTCDDGNDDNSCSPLSRCPTECTCLDTVVRCSNKGLKVLPKGIPRDVTELYLDGNQFTLVPKELSNYKHLTLIDLSNNRISTLSNQSFSNMTQLLTLILSYNRLRCIPPRTFDGLKSLRLLSLHGNDISVVPEGAFNDLSALSHLAIGANPLYCDCNMQWLSDWVKSEYKEPGIARCAGPGEMADKLLLTTPSKKFTCQGPVDVNILAKCNPCLSNPCKNDGTCNSDPVDFYRCTCPYGFKGQDCDVPIHACISNPCKHGGTCHLKEGEEDGFWCICADGFEGENCEVNVDDCEDNDCENNSTCVDGINNYTCLCPPEYTGELCEEKLDFCAQDLNPCQHDSKCILTPKGFKCDCTPGYVGEHCDIDFDDCQDNKCKNGAHCTDAVNGYTCICPEGYSGLFCEFSPPMVLPR
notes: domain: protein at N-terminal of slit2 with a molecular weight of about 120 KDa; Comparator in the SPR experiment
